Two molecules from article PMC9899268 can be followed below.

The chains behind the UniProt entries cited, without tags or fusion partners.
UniProt P35222: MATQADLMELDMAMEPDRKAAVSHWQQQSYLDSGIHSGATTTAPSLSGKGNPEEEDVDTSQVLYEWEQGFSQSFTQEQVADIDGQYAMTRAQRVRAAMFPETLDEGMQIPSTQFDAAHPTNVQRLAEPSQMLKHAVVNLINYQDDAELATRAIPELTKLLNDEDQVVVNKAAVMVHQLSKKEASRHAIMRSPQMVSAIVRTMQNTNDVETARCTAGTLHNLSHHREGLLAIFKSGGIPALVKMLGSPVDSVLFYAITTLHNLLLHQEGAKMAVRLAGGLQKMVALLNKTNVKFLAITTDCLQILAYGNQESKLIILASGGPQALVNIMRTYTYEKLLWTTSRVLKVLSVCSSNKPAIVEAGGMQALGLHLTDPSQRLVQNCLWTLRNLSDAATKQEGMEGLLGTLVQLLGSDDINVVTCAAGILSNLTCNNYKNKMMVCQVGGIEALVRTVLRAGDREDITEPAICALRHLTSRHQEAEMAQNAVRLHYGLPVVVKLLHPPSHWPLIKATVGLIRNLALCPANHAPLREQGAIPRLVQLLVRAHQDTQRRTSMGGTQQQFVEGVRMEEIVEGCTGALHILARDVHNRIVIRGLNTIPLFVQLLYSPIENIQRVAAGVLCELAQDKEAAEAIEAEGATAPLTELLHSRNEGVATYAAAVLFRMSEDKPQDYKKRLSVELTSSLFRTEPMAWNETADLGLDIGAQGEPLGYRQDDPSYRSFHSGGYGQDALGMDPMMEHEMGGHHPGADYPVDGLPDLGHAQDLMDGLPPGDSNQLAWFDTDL

The target in this assay is T1, SEC62 (human (endogenous in A498)) (UniProt Q99442).
T1 sequence: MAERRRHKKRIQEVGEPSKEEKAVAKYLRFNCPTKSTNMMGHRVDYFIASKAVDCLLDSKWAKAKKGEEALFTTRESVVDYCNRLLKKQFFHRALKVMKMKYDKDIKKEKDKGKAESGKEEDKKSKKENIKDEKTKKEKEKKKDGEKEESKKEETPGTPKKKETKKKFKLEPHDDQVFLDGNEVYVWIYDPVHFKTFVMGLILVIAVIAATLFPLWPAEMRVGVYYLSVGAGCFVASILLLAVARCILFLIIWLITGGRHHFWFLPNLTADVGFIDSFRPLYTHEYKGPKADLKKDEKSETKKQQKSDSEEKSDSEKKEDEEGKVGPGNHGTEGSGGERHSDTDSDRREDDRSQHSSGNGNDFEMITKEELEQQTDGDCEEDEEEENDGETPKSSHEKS
Kind of assay: co-IP; endogenous IP from A498 cell lysate with anti-SEMA6A, anti-SEC62 or IgG and protein A/G beads, 4 °C overnight; IP buffer 100 mM NaCl, 20 mM Tris-HCl pH 8.0, 0.5 mM EDTA, 0.5% NP-40; immunoblot; for SEC62 with β-catenin also cells stably expressing con-shRNA or SEMA6A-shRNA, vector or FLAG-SEMA6A. On the technique in general: Immunoblotting shows a protein as a band on a membrane.

These are yes or no findings as the source states them, for the method shown. Binding seen in cells or lysates may run through a third protein. Some entries that bind do so weakly or less than the wild type.

For the molecule β-catenin (from UniProt P35222 1-781), the binding entry was “binds”.

B1: SEMA6A (protein, UniProt Q9H2E6 19-1030)
chain: GFPEDSEPISISHGNYTKQYPVFVGHKPGRNTTQRHRLDIQMIMIMNGTLYIAARDHIYTVDIDTSHTEEIYCSKKLTWKSRQADVDTCRMKGKHKDECHNFIKVLLKKNDDALFVCGTNAFNPSCRNYKMDTLEPFGDEFSGMARCPYDAKHANVALFADGKLYSATVTDFLAIDAVIYRSLGESPTLRTVKHDSKWLKEPYFVQAVDYGDYIYFFFREIAVEYNTMGKVVFPRVAQVCKNDMGGSQRVLEKQWTSFLKARLNCSVPGDSHFYFNILQAVTDVIRINGRDVVLATFSTPYNSIPGSAVCAYDMLDIASVFTGRFKEQKSPDSTWTPVPDERVPKPRPGCCAGSSSLERYATSNEFPDDTLNFIKTHPLMDEAVPSIFNRPWFLRTMVRYRLTKIAVDTAAGPYQNHTVVFLGSEKGIILKFLARIGNSGFLNDSLFLEEMSVYNSEKCSYDGVEDKRIMGMQLDRASSSLYVAFSTCVIKVPLGRCERHGKCKKTCIASRDPYCGWIKEGGACSHLSPNSRLTFEQDIERGNTDGLGDCHNSFVALNGHSSSLLPSTTTSDSTAQEGYESRGGMLDWKHLLDSPDSTDPLGAVSSHNHQDKKGVIRESYLKGHDQLVPVTLLAIAVILAFVMGAVFSGITVYCVCDHRRKDVAVVQRKEKELTHSRRGSMSSVTKLSGLFGDTQSKDPKPEAILTPLMHNGKLATPGNTAKMLIKADQHHLDLTALPTPESTPTLQQKRKPSRGSREWERNQNLINACTKDMPPMGSPVIPTDLPLRASPSHIPSVVVLPITQQGYQHEYVDQPKMSEVAQMALEDQAATLEYKTIKEHLSSKSPNHGVNLVENLDSLPPKVPQREASLGPPGASLSQTGLSKRLEMHHSSSYGVDYKRSYPTNSLTRSHQATTLKRNNTNSSNSSHLSRNQSFGRGDNPPPAPQRVDSIQVHSSQPSGQAVTVSRQPSLNAYNSLTRSGLKRTPSLKPDVPPKPSFAPLSTSMKPNDACT
As for B1, the binding entry was “binds”.
